Measurements taken from patent EP2878306B1, “MODIFIED PEPTIDE, CB RECEPTOR LIGAND, KIT, IN VITRO PROCESS FOR […] RECEPTOR BONDS, USES, PHARMACEUTICAL COMPOSITION FOR […] RECEPTOR ACTIVITY” (Proteimax Biotecnologia Ltda, priority 2012, dated 2014).
At least one peptide structure holds a part that was inferred or is arguable (an end, a ring closure or a residue). No end group written: not given here.

Amino acid sequences for entries named in this document (tags omitted).
UniProt P21554, whole entry: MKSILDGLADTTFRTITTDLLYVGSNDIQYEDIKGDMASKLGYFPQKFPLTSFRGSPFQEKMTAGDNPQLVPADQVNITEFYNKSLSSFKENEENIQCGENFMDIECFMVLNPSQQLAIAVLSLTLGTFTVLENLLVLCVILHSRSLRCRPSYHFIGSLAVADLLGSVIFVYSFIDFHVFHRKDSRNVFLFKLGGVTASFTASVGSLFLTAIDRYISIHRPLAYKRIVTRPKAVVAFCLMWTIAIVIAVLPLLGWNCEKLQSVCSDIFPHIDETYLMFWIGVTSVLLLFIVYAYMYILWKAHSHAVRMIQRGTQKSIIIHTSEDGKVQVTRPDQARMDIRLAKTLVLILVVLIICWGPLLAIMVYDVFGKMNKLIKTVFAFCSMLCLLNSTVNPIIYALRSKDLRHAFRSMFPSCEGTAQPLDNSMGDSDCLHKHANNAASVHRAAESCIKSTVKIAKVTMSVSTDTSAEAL

What was measured:
[1] = target: T1, CB1 receptor (Homo sapiens, UniProt P21554); assay: ELISA with striate membranes and anti-CB1 antibody, receptor activating percentage regarding the control; type: biochemical
T1 construct: ligand for CB1 receptor through ELISA with striate membranes (5µg/pool) treated with 1µM of each drug; from tissue; host or cells: striatal ('striate') membranes
Description: (§1) The receptor activating percentage was calculated regarding the control, non-treated membrane (100%). […] Significant differences are indicated and p<0.05.

[2] = system: CB2 receptor; assay: ELISA with striate membranes for CB2 receptor, receptor activating percentage regarding the control; type: biochemical
Description: as §1

[3] = system: cannabinoid system; assay: Utility of the natural peptide regarding the cannabinoid system; conditions: Table 1; Result cell is a dash

DITADDEPLT [SeqID:6, DITADDEPLT]
Result (activity regarding the CB1) ([1]; Table 1 summary): The peptide does not demonstrate activity against CB1 or CB2
activity in CB1 receptors ([1]; striate membranes 5µg/pool, 1µM of each drug, 2 hours, ambient temperature, compared to control and SeqID:1): not demonstrated activity detectable against the CB1 or CB2
Result (activity in CB2) ([2]; Table 1 summary): The peptide does not demonstrate activity against CB1 or CB2
activity in CB2 receptors ([2]; striate membranes 5µg/pool, 1 µM of each drug, 2 hours, ambient temperature): not demonstrated activity detectable against the CB1 or CB2

DIIADDEPLT [Natural sequence (prior art), DIIADDEPLT]
Conclusion (utility related to the cannabinoid system) [3]: It was not detected any utility related to the cannabinoid system
